No constants are given. Whether binding was seen depends on the method and setting. In cells and extracts the contact can be indirect. Some entries that bind do so weakly or less than the wild type. Where a sequence is shown, tags or fusion partners need not be part of it.

Sequences of proteins named here, by UniProt entry; tags and fusion partners are left off. A change or cut given only in a name is not applied to a line headed by its entry.
UniProt P05556: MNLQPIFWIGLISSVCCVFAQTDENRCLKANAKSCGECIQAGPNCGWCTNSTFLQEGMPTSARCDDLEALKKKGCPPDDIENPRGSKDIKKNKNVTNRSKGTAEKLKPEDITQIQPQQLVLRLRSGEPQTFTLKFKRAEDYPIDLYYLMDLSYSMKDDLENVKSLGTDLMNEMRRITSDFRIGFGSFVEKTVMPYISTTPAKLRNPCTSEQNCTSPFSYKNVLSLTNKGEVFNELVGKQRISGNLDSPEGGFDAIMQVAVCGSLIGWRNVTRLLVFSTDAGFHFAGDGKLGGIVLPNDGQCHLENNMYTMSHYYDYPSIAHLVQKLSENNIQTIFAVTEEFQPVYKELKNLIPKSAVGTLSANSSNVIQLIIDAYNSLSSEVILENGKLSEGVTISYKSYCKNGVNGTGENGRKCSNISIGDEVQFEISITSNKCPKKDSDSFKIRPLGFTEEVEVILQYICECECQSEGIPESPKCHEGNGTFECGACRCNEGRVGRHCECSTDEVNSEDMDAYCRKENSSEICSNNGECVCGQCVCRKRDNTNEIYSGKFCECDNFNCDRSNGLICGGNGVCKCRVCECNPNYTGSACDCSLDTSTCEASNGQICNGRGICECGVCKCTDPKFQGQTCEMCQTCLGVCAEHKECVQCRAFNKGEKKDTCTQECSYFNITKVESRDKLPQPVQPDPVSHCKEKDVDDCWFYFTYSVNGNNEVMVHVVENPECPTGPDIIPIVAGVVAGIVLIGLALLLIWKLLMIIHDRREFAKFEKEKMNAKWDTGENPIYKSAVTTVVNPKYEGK

Experimental findings from paper PMC7677509 are described below.

For this assay, the target named is insulin-like growth factor binding protein 3 (human (endogenous in SCC-9)) (UniProt P17936). Put plainly: co-IP; SCC-9 cell lysates (RIPA buffer; cyclin G2 overexpressing and control cells); IGFBP3 antibody on protein A/G magnetic beads, incubated overnight, washed with PBST; western blot. (Immunoblotting shows a protein as a band on a membrane.)

Regarding “Integrin β1 (from UniProt P05556 21-798) (receptor)”, the binding result was “binds”.

B1: FLAG-tagged cyclin G2 (protein, UniProt Q16589 1-344)
chain: MKDLGAEHLAGHEGVQLLGLLNVYLEQEERFQPREKGLSLIEATPENDNTLCPGLRNAKVEDLRSLANFFGSCTETFVLAVNILDRFLALMKVKPKHLSCIGVCSFLLAARIVEEDCNIPSTHDVIRISQCKCTASDIKRMEKIISEKLHYELEATTALNFLHLYHTIILCHTSERKEILSLDKLEAQLKACNCRLIFSKAKPSVLALCLLNLEVETLKSVELLEILLLVKKHSKINDTEFFYWRELVSKCLAEYSSPECCKPDLKKLVWIVSRRTAQNLHNSYYSVPELPTIPEGGCFDESESEDSCEDMSCGEESLSSSPPSDQECTFFFNFKVAQTLCFPS
On to B1, for which the binding result is “binds”.
